Assay results reported in article doi:10.1101/2025.09.22.677165.
Results are given in words; binding and its absence hold for the method and conditions named. For some of these results: Binding seen in cells or lysates may run through a third protein. Some entries that bind do so weakly or less than the wild type.

By UniProt entry, the sequences of proteins in these tests, tags left out.
UniProt P24864: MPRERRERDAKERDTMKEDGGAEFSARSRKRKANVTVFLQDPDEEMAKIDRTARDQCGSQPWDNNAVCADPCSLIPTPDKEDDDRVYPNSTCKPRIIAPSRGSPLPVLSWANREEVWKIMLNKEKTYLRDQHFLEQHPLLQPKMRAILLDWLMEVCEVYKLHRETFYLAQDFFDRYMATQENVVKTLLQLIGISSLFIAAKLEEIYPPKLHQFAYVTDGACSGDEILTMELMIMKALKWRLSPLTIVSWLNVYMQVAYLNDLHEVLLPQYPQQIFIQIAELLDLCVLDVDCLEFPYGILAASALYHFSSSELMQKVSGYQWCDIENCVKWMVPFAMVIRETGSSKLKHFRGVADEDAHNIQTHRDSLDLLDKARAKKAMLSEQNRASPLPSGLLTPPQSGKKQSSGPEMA
UniProt P17302: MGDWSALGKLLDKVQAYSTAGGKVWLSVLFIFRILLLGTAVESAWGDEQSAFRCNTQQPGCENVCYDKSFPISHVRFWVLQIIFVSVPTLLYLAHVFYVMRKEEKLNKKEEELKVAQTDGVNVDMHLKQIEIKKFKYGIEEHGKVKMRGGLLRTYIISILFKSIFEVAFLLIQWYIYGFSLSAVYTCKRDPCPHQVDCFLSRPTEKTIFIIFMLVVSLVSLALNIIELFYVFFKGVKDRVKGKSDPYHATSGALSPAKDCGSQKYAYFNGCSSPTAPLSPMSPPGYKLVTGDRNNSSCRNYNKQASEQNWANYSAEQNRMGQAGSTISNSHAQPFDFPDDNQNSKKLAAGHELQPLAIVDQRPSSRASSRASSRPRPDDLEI

What was measured:
[1] = molecular target: T1, Peptide-1 sequence (…, 11 a.a.) on the peptide array (mouse); experiment: peptide or protein array
T1 sequence (peptide): GVKDRVKGRSD

[2] = molecular target: T2, Off-target (OT) peptide sequence (…, 15 a.a.) on the peptide array (mouse); experiment: peptide or protein array
T2 sequence (peptide): AYFNGCSSPTAPLDP

[3] = molecular target: T3, Peptide-2 sequence (…, 22 a.a.) on the peptide array (mouse); experiment: peptide or protein array
T3 sequence (peptide): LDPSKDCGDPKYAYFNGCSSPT

[4] = molecular target: cyclin E, endogenous in human coronary artery smooth muscle cells (human (endogenous in CASMC)) (UniProt P24864); experiment: co-IP

binding [1] | binding [2] | binding [3] | binding [4] | Substance
binds | no binding (tested: 2.86 mg/mL cyclin E) | binds |  | Full-length cyclin E-GST protein (from UniProt P24864 1-410)
 |  |  | binds | connexin 43 (Cx43), endogenous in human coronary artery smooth muscle cells (from UniProt P17302 1-382)
